The results in this text go back to paper PMC10318462.

Holding throughout (assay): EMSA
(In general: In EMSA bound probe runs differently from free probe, usually more slowly.)

In data set [1] the target is Apo-Fur (no [2Fe-2S]) (Escherichia coli) (UniProt P0A9A9). Conditions: no cluster, very little or no binding up to 2.0 uM; EMSA: 22 mM Tris pH 8.0, 7% glycerol, 4.1 mM MgCl2, 44 mM KCl, 55 mM NaCl, room temp 10 min, 0.7 nM DNA; recombinant protein; label: 5'-biotin on strand 1 (primer Fur-A).
Data set [2] has as its target T1, Fur-C93A (Escherichia coli) (UniProt P0A9A9).
T1 sequence (looked up, limits assumed): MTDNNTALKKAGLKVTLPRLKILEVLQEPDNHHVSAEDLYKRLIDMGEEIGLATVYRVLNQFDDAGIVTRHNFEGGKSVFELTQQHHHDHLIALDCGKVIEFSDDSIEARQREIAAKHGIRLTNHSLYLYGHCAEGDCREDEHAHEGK
The conditions noted are these: no cluster, data not shown; EMSA: 22 mM Tris pH 8.0, 7% glycerol, 4.1 mM MgCl2, 44 mM KCl, 55 mM NaCl, room temp 10 min, 0.7 nM DNA; recombinant protein; label: 5'-biotin on strand 1 (primer Fur-A).

Data set [3] deals with T2, Fur-C96A (Escherichia coli) (UniProt P0A9A9).
T2 sequence (looked up, limits assumed): T1 sequence (looked up, limits assumed) with A93C, C96A
Conditions: no cluster, data not shown; EMSA: 22 mM Tris pH 8.0, 7% glycerol, 4.1 mM MgCl2, 44 mM KCl, 55 mM NaCl, room temp 10 min, 0.7 nM DNA; recombinant protein; label: 5'-biotin on strand 1 (primer Fur-A).

In data set [4] the target is T3, Red-Fur ([2Fe-2S]-bound Fur, ~36% occupancy) (Escherichia coli) (UniProt P0A9A9).
T3 sequence (looked up, limits assumed): T1 sequence (looked up, limits assumed) with A93C
The conditions noted are these: [2Fe-2S], 1.0 uM completely shifts 0.7 nM DNA, EMSA: 22 mM Tris pH 8.0, 7% glycerol, 4.1 mM MgCl2, 44 mM KCl, 55 mM NaCl, room temp 10 min, recombinant protein, label: 5'-biotin on strand 1 (primer Fur-A).

Data set [5] deals with T4, Red-Fur after removal of [2Fe-2S] (Escherichia coli) (UniProt P0A9A9).
T4 sequence (looked up, limits assumed): T1 sequence (looked up, limits assumed) with A93C
Conditions: cluster removed, up to 2.0 uM; EMSA: 22 mM Tris pH 8.0, 7% glycerol, 4.1 mM MgCl2, 44 mM KCl, 55 mM NaCl, room temp 10 min, 0.7 nM DNA; recombinant protein; label: 5'-biotin on strand 1 (primer Fur-A).

Substitutions are numbered along the chain they refer to. The exact form of at least one protein or probe is not confirmed. For some assays here: A negative result means that nothing was seen under these conditions. For some assays here: Where a protein sequence is shown, tags need not be part of it. For some assays here: Weaker means in comparison with the reference protein, sequence or condition of that experiment.

Turning to “TTTAGGCGTGGCAATTCTATAATGATACGCATTATCTCAAGAGCAAATTCTGTCACTTCTTCTAATGAAGTGAACCGCTTAGTAACAGGACAGATTCCGCATGACTGATA (double strand) [fur promoter fragment with Fur-box (110 bp)]”, the binding result in data set [1] was “no binding”; in data set [2] it was “binds more weakly”; in data set [3], “binds more weakly”; in data set [4], “binds”; in data set [5], “no binding”.
